The campaign covered roughly 310,000 compounds. About 17,000 (5.5%) were called active. The shares of active, inactive and inconclusive entries below differ from those in the screen. Calls follow the shape of the dose curve; as a rule, active = well fitted inhibition curve with a large enough effect; inconclusive = small, poorly fitted or top-dose-only effect, or effect the other way; inactive = no such curve, though single readings can be large or run the other way. Potencies of inconclusive entries are doubtful fits and often do not repeat.
What follows are compounds tested against Nuclear receptor ROR-gamma (Mus musculus) (UniProt P51450) (assay: qHTS for inhibitors of ROR gamma transcriptional activity). Conditions: Drosophila S2 Gal4-RORgamma UAS-luciferase reporter, 20 h; activity change, negative = inhibition: at 53.6 µM (top of the series).
Procedure, shortened: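 Luciferase reporter read in Schneider cells carrying Gal4-RORγ (mouse) and UAS-Photinus luciferase; cells given compound 1 h before 700 uM copper sulfate induction, then incubated 20 h at ambient temperature.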
% is scaled to controls: 0 for no effect and ±100 for the full control effect; potency is read from the fitted curve at half-maximal effect.
Also: nearly all actives have a fitted effect of over 60% in size.

By UniProt entry, the sequences of proteins in these tests, tags left out. Where a name states a change or a piece, a line headed by the entry shows the natural chain unless it says otherwise.
UniProt P51450: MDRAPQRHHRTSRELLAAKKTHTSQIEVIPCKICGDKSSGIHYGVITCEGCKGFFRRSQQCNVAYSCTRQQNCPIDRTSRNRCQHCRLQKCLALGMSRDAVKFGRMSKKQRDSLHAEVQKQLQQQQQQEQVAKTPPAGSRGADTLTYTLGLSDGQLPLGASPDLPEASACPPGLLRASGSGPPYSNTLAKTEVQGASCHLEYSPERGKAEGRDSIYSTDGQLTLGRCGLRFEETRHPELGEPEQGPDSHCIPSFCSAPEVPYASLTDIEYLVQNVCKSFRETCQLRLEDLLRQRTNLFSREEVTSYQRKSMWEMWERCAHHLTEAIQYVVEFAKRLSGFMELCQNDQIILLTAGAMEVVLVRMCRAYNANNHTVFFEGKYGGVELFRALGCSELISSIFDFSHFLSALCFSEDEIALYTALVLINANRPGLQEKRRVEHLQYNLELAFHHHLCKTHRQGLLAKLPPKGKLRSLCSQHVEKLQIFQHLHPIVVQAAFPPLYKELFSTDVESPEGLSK

Potency, active:
CN(C)CCNC(=O)c1cc2c(s1)-c1ccc(Cl)cc1SC2 10 µM
COc1cccc(-c2nnc(NC(=O)c3ccc(S(=O)(=O)N4CCOCC4)cc3)o2)c1 0.501 µM
Cc1cc(Cl)ccc1OCC(=O)NC(=S)Nc1ccccc1N1CCOCC1 4.47 µM
CN(/N=C\c1ccc(O)c(O)c1)c1nc(-c2ccccc2)cc(-c2ccccc2)n1 2.51 µM
O=C(NC(=S)Nc1ccccn1)c1ccc(-c2ccccc2)cc1 3.16 µM
C=CCn1cc(C(=O)OC)c(=O)c2cc(S(=O)(=O)N3CCC(C)CC3)ccc21 11.2 µM
S=c1[nH]nc(Cc2noc3ccccc23)n1-c1ccccc1 10 µM
Cc1ccc(NC(=S)NNC(=O)c2c([N+](=O)[O-])c(C)nn2C)cc1 12.6 µM
COc1ccc(N2CCN(C(=S)Nc3ccc(C)cc3)CC2)cc1 10 µM
CCOC(=O)c1c(C)cc(C)n2c1nc1ccccc12 5.62 µM

Potency, inconclusive:
CNC(=S)N(CCc1c(C)[nH]c2ccc(Cl)cc12)Cc1cccs1 25.1 µM [inhibitor, single point]
Cc1cc(C(=O)COC(=O)c2cccnc2Cl)c(C)n1CC1CCCO1 (stereo not given) 12.6 µM [inhibitor, partial curve]
O=C(c1ccc(Cl)c(S(=O)(=O)Nc2ccc(F)cc2)c1)N1CCN(c2ccccn2)CC1 14.1 µM [activator, single point]
CC(=O)Nc1ccc(S(=O)(=O)N2CCc3c(Cl)cccc3C2)cc1 14.1 µM [inhibitor, partial curve]
CCN1C(=S)SC(=O)C1=C1C=C(C)OC(C)=C1 10 µM [activator, partial curve]
CCn1cc(CNC(=S)Nc2cccc3ccccc23)cn1 22.4 µM [inhibitor, single point]
CN(C(=O)CSc1nc2ccc(Br)cc2c(=O)n1Cc1ccco1)C1CCS(=O)(=O)C1 (stereo not given) 2.51 µM [activator, full curve, poor fit]
CC1(C)COC(c2cccn2Cc2ccccc2Cl)=N1 15.8 µM [inhibitor, single point]
O=C1CN(C(=O)c2cc3ccccc3oc2=O)C(c2ccccc2)c2cc(F)ccc2N1 (stereo not given) 17.8 µM [activator, partial curve]
CCCN1C(=O)c2cc(C(=O)NCc3cccs3)ccc2C1O (stereo not given) 11.2 µM [activator, partial curve, poor fit]
O=C(Nc1cccc(S(=O)(=O)NC2=NCCC2)c1)C1CC(=O)N(c2ccc3c(c2)OCCO3)C1 (stereo not given) 3.98 µM [inhibitor, single point]
CC(=O)c1ccc(N2CCN(C(=O)c3ccc4c(c3)OCO4)CC2)cc1 35.5 µM [activator, single point]
CCOCCOC(=O)c1[nH]c2c(c1C)C(=O)CC(c1ccc(N(C)C)cc1)C2 (stereo not given) 22.4 µM [activator, partial curve]
CC(C)(C)C(=O)/C(=C/c1ccc(Cl)cc1)n1cncn1 14.1 µM [inhibitor, single point]
Nc1cc(C(=O)c2ccccc2)ccc1N1CCOCC1 11.2 µM [activator, partial curve]
CC(C)(C)c1ccc(-c2n[nH]c(=S)n2/N=C/c2ccncc2)cc1 11.2 µM [inhibitor, partial curve]
O=C(CN1C(=O)NC2(CCCC2)C1=O)Nc1nc(-c2ccc(F)cc2)cs1 11.2 µM [activator, single point]
CCc1cccc2c(C(=O)COC(=O)/C=C/c3ccc(O)c(OC)c3)c[nH]c12 12.6 µM [activator, partial curve]
Cc1c(C(=O)O)oc2c1C(O)CC(C)(C)C2 (stereo not given) 3.16 µM [inhibitor, full curve, poor fit]
Cc1c(C(=O)OCCOc2ccccc2)[nH]c2c1C(=O)CCC2 17.8 µM [inhibitor, partial curve, poor fit]
COc1ccc(Cn2c(=S)[nH]c3cc(C(=O)N4CCN(c5ccccc5)CC4)ccc3c2=O)cc1 35.5 µM [inhibitor, single point]
COc1ccc(CCc2nnc(CCC(=O)N(C)Cc3ccncc3C)o2)cc1 20 µM [activator, partial curve, poor fit]
CCCCOc1cccc(/C=N/NC(=O)c2csc(C)c2C)c1 15.8 µM [inhibitor, single point]
CCn1nc(C(=O)OCC(=O)Nc2nc(-c3ccc(OC)cc3)cs2)c2ccccc2c1=O 0.355 µM [activator, partial curve]
CCc1nc2oc3ccccc3c(=O)c2cc1C(=O)OC 6.31 µM [activator, single point]
CC1(C)NC(=O)N(CCCCOc2ccc3c(c2)CCC3)C1=O 10 µM [activator, partial curve]
COc1ccc(N2C(=O)CC(N3CCC(O)(c4ccc(Cl)cc4)CC3)C2=O)cc1 (stereo not given) 22.4 µM [inhibitor, single point]

Activity change, negative = inhibition, inactive:
CCC1Oc2ccccc2N(CC(=O)NCCCN2CCN(CC)CC2)C1=O (stereo not given) 1.84%
Cc1cn2c(-c3ccc(Cl)cc3)nnc2s1 24.7%
c1nc(N2CCNCC2)c2cc(-c3ccc4c(c3)OCO4)ccc2n1 18.3%
CC1=CN2C(=NC(=O)CC2(C)C(=O)N(CC(=O)NC2CCCC2)Cc2ccc(Cl)cc2)C=C1 (stereo not given) -12.4%
CN(C#N)c1nccc(-c2cccs2)n1 -1.04%
Cn1nc(CC(=O)NC2CCCCCCCCCCC2)c2ccccc2c1=O 11%
Cc1ccc(C2N(c3ccccc3)C(=O)N3CCCN23)cc1 (stereo not given) 4.76%
COc1ccc(-n2ccnc2SCC(=O)NC2CCCC2)c(OC)c1 17.3%

Sorted by formula weight (high to low): some entries from above
Activity change, negative = inhibition, inactive:
CCC1Oc2ccccc2N(CC(=O)NCCCN2CCN(CC)CC2)C1=O (stereo not given) 1.84%
Cn1nc(CC(=O)NC2CCCCCCCCCCC2)c2ccccc2c1=O 11%
COc1ccc(-n2ccnc2SCC(=O)NC2CCCC2)c(OC)c1 17.3%

Reference: PubChem BioAssay AID2551 (National Center for Advancing Translational Sciences (NCATS), 2010)
